Measurements published in publication PMC4959467.
No constants are given. Whether binding was seen depends on the method and setting. In cells and extracts the contact can be indirect. Some binding calls cover weakened binding; strength is not graded here.

Chains of the proteins cited; added tags and fusions are not shown.
UniProt Q9HC97: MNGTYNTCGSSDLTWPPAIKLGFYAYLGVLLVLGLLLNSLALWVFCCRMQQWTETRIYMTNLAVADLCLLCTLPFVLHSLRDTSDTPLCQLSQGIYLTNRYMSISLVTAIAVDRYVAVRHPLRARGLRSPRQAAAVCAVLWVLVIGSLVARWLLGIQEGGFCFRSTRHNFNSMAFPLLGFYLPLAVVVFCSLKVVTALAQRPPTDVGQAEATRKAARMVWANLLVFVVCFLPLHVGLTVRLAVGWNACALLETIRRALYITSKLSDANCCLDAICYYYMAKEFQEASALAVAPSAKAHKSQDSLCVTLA
UniProt P32121: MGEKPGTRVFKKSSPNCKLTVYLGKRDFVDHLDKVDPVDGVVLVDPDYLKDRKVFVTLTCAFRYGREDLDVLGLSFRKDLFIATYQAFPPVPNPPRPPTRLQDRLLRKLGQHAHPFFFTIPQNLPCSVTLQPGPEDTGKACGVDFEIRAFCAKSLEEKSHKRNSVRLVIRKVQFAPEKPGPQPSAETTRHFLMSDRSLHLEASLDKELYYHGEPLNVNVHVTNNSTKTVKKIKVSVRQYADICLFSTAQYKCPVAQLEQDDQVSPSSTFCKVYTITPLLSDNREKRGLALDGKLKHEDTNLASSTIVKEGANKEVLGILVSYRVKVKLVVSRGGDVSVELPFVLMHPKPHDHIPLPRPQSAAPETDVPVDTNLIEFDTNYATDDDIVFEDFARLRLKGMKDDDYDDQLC

Target: FLAG-tagged hGPR35 enhanced yellow fluorescent protein (FLAG-hGPR35-eYFP) (human) (UniProt Q9HC97)
Test: FRET or BRET; HEK293T cells cotransfected with FLAG-hGPR35-eYFP and β-arrestin-2-Renilla luciferase 6 (ratio 4:1); Hanks' balanced salt solution pH 7.4, 5 μM coelentrazine-h, 37°C; 5 min with the agonists pamoic acid or zaprinast; BRET ratio 530/485 nm as percentage of maximal signal

Substance: β-arrestin-2-Renilla luciferase 6 (from UniProt P32121 1-409)
- binding: binds
